Experimental data: patent US9468680B2, “Differential effects of drugs on transport in a multi-layer 3D spheroid model” (Brown University, priority 2011, dated 2016)
For at least one compound, name, drawing or mass did not settle the structure.

Chains of the proteins cited; added tags and fusions are not shown. Residues count along the entry.
UniProt P17302, 2-382 limits assumed: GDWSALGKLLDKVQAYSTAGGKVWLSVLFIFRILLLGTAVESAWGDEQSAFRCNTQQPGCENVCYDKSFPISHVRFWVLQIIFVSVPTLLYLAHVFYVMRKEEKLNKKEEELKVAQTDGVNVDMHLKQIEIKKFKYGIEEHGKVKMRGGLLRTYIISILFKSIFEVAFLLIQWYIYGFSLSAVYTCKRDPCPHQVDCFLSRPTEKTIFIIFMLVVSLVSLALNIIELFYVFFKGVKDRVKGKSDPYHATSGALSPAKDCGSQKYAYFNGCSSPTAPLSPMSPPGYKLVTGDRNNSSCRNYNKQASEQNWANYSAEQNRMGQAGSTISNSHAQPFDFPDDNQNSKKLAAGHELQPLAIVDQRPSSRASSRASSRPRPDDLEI

Columns and labels:
cancer cell lines = settings: cited from earlier work
ovarian cancer = ovarian cancer patients treated with paclitaxel; cited from earlier work
gap junctions = biological target: T1, gap junctions (Homo sapiens, UniProt P17302); test: transport of calcein from outer shell to core of KGN spheroids (compartmentalization analysis); format: cell-based; settings: 10 μm nitrendipine for 3 hours, 1 μM calcein-AM for 75 minutes
T1 construct: endogenous in cells; host or cells: KGN human granulosa cell line, self-assembled 3D spheroids
Method: KGN cells, a human granulosa cell line, were grown in DMEM^29. OVCAR-3 and SK-OV-3 cells were grown in Roswell Park Memorial Institute medium (RPMI; Invitrogen). Both media were supplemented with 10% fetal bovine serum (FBS) (Thermo Fisher Scientific, Waltham, Mass.) and 1% penicillin/streptomycin and grown at 37° C. and 10% CO2. Cells were trypsinized using 0.05% trypsin and resuspended to the desired cell concentration. Spheroids that were pre-stained were formed from cells incubated with 5 μM CellTracker™ Red CMPTX, CellTracker™ Green CMFDA, or CellTracker™ Blue CMAC (Invitrogen) in serum-free DMEM for 1 hour prior to trypsinization. […]
Quantitative image analysis was performed using a custom MATLAB (Mathworks, Natick, Mass.) program. Briefly, fifty evenly spaced radii were drawn across each spheroid and fluorescence at each pixel was averaged. […] Total spheroid fluorescence was determined by the integration of the fluorescent profiles (Equation 2). To compare data across experiments, we normalized the spheroids to the fluorescence per depth of single cells at the final time point. […]
To deconvolve this fluorescent signal into an average 3D radial profile, the spheroid was estimated as a series of concentric spheres (multi-layers). […] The total fluorescence f(i) at X, layer is sum of the fluorescence contribution from all shells at Xi. Mathematically, the total fluorescence can be written as […]

Structure (SMILES) | uptake and retention of anticancer drugs (cancer cell lines) | clinical benefit (ovarian cancer) | calcein levels in the outer shell and the core of the spheroids (gap junctions)
C/C=C/C[C@@H](C)C(=O)[C@H]1C(=O)N[C@@H](C(C)C)C(=O)N(C)CC(=O)N(C)[C@@H](CC(C)C)C(=O)N[C@@H](C(C)C)C(=O)N(C)[C@@H](CC(C)C)C(=O)N[C@@H](C)C(=O)N[C@H](C)C(=O)N(C)[C@@H](CC(C)C)C(=O)N(C)[C@@H](CC(C)C)C(=O)N(C)[C@@H](C(C)C)C(=O)N1C [Valspodar] | improve | no clinical benefit | 
CCOC(=O)C1=C(C)NC(C)=C(C(=O)OC)C1c1cccc([N+](=O)[O-])c1 (stereo not drawn) [nitrendipine] |  |  | the same
